Assay results from PMC6240685, “Strong Inhibitory Effect, Low Cytotoxicity and High Plasma Stability of Steroidal Inhibitors of N-Methyl-D-Aspartate Receptors With C-3 Amide Structural Motif” (Frontiers in Pharmacology, 2018).

Experiments:
HepG2 cells [1] = assay: Hepatotoxicity, XTT viability after 72 h; assay type: cell-based; conditions: Homo sapiens, HepG2, 5.5 mM glucose
Description: Then, the cell viability (XTT assay) and reactive oxygen species (ROS) induction were evaluated.
(A) Hepatotoxicity provoked by compound 4 was assessed after 72 h incubation of HepG2 cells in low glucose medium (5 mM) in the presence of compound 4 (0.25–100 μM). (B) Mitochondrial toxicity was determined after 24 h incubation of HepG2 cells in either high glucose medium (25 mM) or galactose medium (10 mM) in the presence of compound 4 (2.5–150 μM). Cell viabilities were recorded in triplicates in three independent experiments and expressed as percentage of vehicle control ± SD and IC50 values were determined by GraphPad Prism software using following equation: Y = Bottom + (Top–Bottom)/(1 + 10ˆ((LogIC50-X)^∗HillSlope)), where IC50 is the concentration of compound 4 that inhibits cell viability half way between Bottom and Top plateaus, X is compound 4 concentration and HillSlope describes the steepness of the family of curves. […] HepG2 cells were treated with compound 4 (0.25–100 μM) for 72 h, and then the intracellular level of total ROS in relative fluorescence units (RFU) was detected. […]
The cytotoxicity of the tested compounds was assessed with use of XTT cell proliferation kit II (Roche Diagnostics GmbH, Mannheim, Germany) according to the manufacturer’s instructions. […] The XTT absorbance was recorded at 495 nm after 1 h incubation with the dye. […]

HepG2 cells [2] = assay: Mitotoxicity, XTT viability in glucose vs galactose medium; conditions: Homo sapiens, HepG2, 24 h
Description: (A) Hepatotoxicity provoked by compound 4 was assessed after 72 h incubation of HepG2 cells in low glucose medium (5 mM) in the presence of compound 4 (0.25–100 μM). (B) Mitochondrial toxicity was determined after 24 h incubation of HepG2 cells in either high glucose medium (25 mM) or galactose medium (10 mM) in the presence of compound 4 (2.5–150 μM). Cell viabilities were recorded in triplicates in three independent experiments and expressed as percentage of vehicle control ± SD and IC50 values were determined by GraphPad Prism software using following equation: Y = Bottom + (Top–Bottom)/(1 + 10ˆ((LogIC50-X)^∗HillSlope)), where IC50 is the concentration of compound 4 that inhibits cell viability half way between Bottom and Top plateaus, X is compound 4 concentration and HillSlope describes the steepness of the family of curves. […] (C) Concentration-dependent effect on ROS level. HepG2 cells were treated with compound 4 (0.25–100 μM) for 72 h, and then the intracellular level of total ROS in relative fluorescence units (RFU) was detected. […]
The cytotoxicity of the tested compounds was assessed with use of XTT cell proliferation kit II (Roche Diagnostics GmbH, Mannheim, Germany) according to the manufacturer’s instructions. […] Mitochondrial toxicity was assessed in HepG2 cells using glucose and galactose conditioned media and XTT assay as a read out for cell viability. […]

CCCCc1oc2ccccc2c1C(=O)c1cc(I)c(OCCN(CC)CC)c(I)c1 [Amiodarone, amiodarone, reference compound]
IC50 (HepG2 cells [1]): 4.9 ± 0.2 µM
IC50 (HepG2 cells [2]; read-out: Mitotoxicity IC50, 10 mM galactose): 23 ± 5 µM
IC50 (HepG2 cells [2]; read-out: Mitotoxicity IC50, 25 mM glucose): 63 ± 9 µM
